Measurements reported in PubChem BioAssay AID504774 (Drosophila RNAi Screening Center, 2011).
The screen tested about 23,000 reagents; this is an unselected part of those that have a named target and a result. 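Values are quantile-normalised luminescence on an arbitrary scale; higher means more cells surviving MMS.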 Names joined by + are all predicted targets of the reagent. Not all columns of the deposit are shown.

Aim: 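Genes required for cells to withstand methyl methanesulphonate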 (primary screen)
Cell system: Drosophila Kc167 cells
Knock-down reagent: long dsRNA against Drosophila genes, about 0.25 µg dsRNA per well
Timing: about 6 days: 3 days knock-down, then 3 days with or without MMS
Treatment: methyl methanesulphonate 0.004% (w/v) for 3 days after knock-down
Detection: 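ATP-dependent luminescence as a measure of live cells in MMS-exposed wells, quantile normalised within each plate, with replicate values also given as a mean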
Reading the numbers: mean viability with MMS and viability with MMS: higher = more surviving cells after MMS

The opening 6 entries, to show the layout:
no.	Target gene	PubChem SID	mean viability with MMS	viability with MMS, replicate 1
1	Cdc5	SID104188369	3.06e6	3.64e6
2	UQCR-11L	SID104201713	3.50e6	4.01e6
3	Rbpn-5	SID104184232	3.64e6	4.28e6
4	Elp3	SID104180240	3.46e6	4.00e6
5	nAChRalpha5	SID104181152	3.73e6	4.06e6
6	nAChRalpha5	SID104181738	3.48e6	4.04e6

The listing, from the first entry:
no.	Target gene	PubChem SID	mean viability with MMS	viability with MMS, replicate 1
1	Cdc5	SID104188369	3.06e6	3.64e6
2	UQCR-11L	SID104201713	3.50e6	4.01e6
3	Rbpn-5	SID104184232	3.64e6	4.28e6
4	Elp3	SID104180240	3.46e6	4.00e6
5	nAChRalpha5	SID104181152	3.73e6	4.06e6
6	nAChRalpha5	SID104181738	3.48e6	4.04e6
7	nAChRalpha5	SID104181739	3.66e6	4.16e6
8	nAChRalpha5	SID104202144	3.36e6	3.90e6
9	CG33462	SID104202261	3.43e6	3.97e6
10	CG14367	SID104194621	3.76e6	4.29e6
11	Vps36	SID104189577	3.41e6	3.73e6
12	Incenp	SID104185908	3.77e6	4.22e6
13	Incenp	SID104201564	3.51e6	4.05e6
14	RhoGAP54D	SID104186782	3.44e6	3.88e6
15	dlg1	SID104198687	3.37e6	3.83e6
16	dlg1	SID104198688	3.55e6	4.06e6
17	dlg1	SID104199559	3.58e6	4.03e6
18	dlg1	SID104200116	3.49e6	3.93e6
19	Vps60	SID104190402	3.65e6	4.20e6
20	Dnali1	SID104195950	3.75e6	4.21e6
21	bur	SID104182955	3.78e6	4.53e6
22	eg	SID104191677	3.58e6	4.05e6
23	scramb1	SID104189516	3.56e6	4.02e6
24	scramb1	SID104190459	3.67e6	4.06e6
25	scramb1	SID104190460	3.45e6	3.89e6
26	CG14075	SID104189872	3.31e6	3.81e6
27	CG16904	SID104194953	3.57e6	4.10e6
28	Pis	SID104199970	3.65e6	4.06e6
29	TwdlM	SID104195602	3.64e6	3.94e6
30	ThrRS	SID104182635	3.53e6	4.09e6
31	Hsp67Bc	SID104190985	3.58e6	4.16e6
32	Akt	SID104193900	3.64e6	4.17e6
33	CG9044	SID104182922	3.61e6	4.14e6
34	betaTub56D	SID104187375	3.31e6	3.72e6
35	mag	SID104191579	3.52e6	3.93e6
36	CG11035	SID104194079	3.74e6	4.23e6
37	CG6409	SID104190422	3.72e6	4.13e6
38	CG6409	SID104201830	3.48e6	3.94e6
39	ro	SID104196838	3.54e6	4.03e6
40	Arts + Apl	SID104190141	3.60e6	3.98e6
41	CG3699	SID104197963	3.58e6	4.01e6
42	CG3699	SID104198434	3.60e6	3.93e6
43	AMPKalpha	SID104198506	3.30e6	3.73e6
44	Ir7c	SID104197799	3.34e6	3.58e6
45	CG9747	SID104196346	3.47e6	3.87e6
46	CG15458	SID104200321	3.58e6	4.03e6
47	CCT8	SID104186922	3.22e6	3.69e6
48	Epac	SID104184761	1.90e6	4.08e6
49	Epac	SID104184788	3.64e6	4.04e6
50	Epac	SID104184789	3.18e6	3.51e6
51	Tlk	SID104197523	3.31e6	3.73e6
52	Tlk	SID104197627	2.82e6	3.41e6
53	Tlk	SID104202281	3.41e6	3.88e6
54	Tlk	SID104202283	3.13e6	3.75e6
55	Tlk	SID104202295	3.60e6	4.07e6
56	Tlk	SID104202520	2.84e6	3.08e6
57	Osi16	SID104191927	3.44e6	4.02e6
58	Osi16	SID104201108	3.58e6	4.03e6
59	Nplp3	SID104189736	3.54e6	3.91e6
60	l(2)k09022	SID104181900	3.19e6	3.40e6
61	CG2701	SID104198382	3.61e6	4.13e6
62	Cyp4e3	SID104183098	3.52e6	3.99e6
63	CG14731	SID104194744	3.50e6	4.01e6
64	bchs	SID104182918	3.45e6	3.96e6
65	CycE	SID104183087	3.03e6	3.28e6
66	CycE	SID104183088	3.12e6	3.61e6
67	Fmo-2	SID104184775	3.56e6	4.03e6
68	CG33252	SID104198954	3.50e6	4.01e6
